Experimental data from PubChem BioAssay AID330 (DTP/NCI, 2004).
The list does not hold the whole screen: it gathers tests that were run many times, whatever their T/C, doses with no T/C, and many T/C values between a quarter and a half above the control. Other doses and runs of a compound stand elsewhere. T/C gives the treated animals as a percentage of the vehicle group. Some entries give survivors of the animals treated and no T/C: the source holds a T/C of zero for them, seemingly a mark for toxic or unscored doses. Some doses without a T/C left all or most animals alive at the check, yet need not have been tolerated: survival well below the control is almost never listed, so the zero probably covers shortened survival too. Survivors were counted at the toxicity check, usually on the fifth day, unless a day is given; later deaths do not show. Schedule codes are those of the source, taken here to give the interval after Q, in days (D) or hours (H), and the number of doses after X. Some entries hold several experiments; the results are listed from low to high. Where survival is the endpoint, the PubChem record calls one and a half times the control and up active, and a quarter to a half above the control has no call in these data; cut-offs in other NCI protocols can differ. Some T/C values are followed by the survivors on the day toxicity was checked, most often the fifth; without a count, all were alive then.

Test system: P388 leukemia ip, CD2F1 mice, survival T/C
Experiment: NCI In Vivo Anticancer Drug Screen. Data for tumor model P388 Leukemia (intraperitoneal) in CD2F1 (CDF1) mice
Conditions: T/C endpoint: median survival time, higher T/C = longer survival
[1] = dose: 240.0 mg/kg/injection, schedule: Q01DX005 (ip), vehicle: Klucel (hydroxypropylcellulose) (HPC)
[2] = dose: 100.0 mg/kg/injection, schedule: Q01DX005 (ip), vehicle: saline with Tween-80
[3] = dose: 200.0 mg/kg/injection, schedule: Q01DX005 (ip), vehicle: saline with Tween-80
[4] = dose: 0.75 mg/kg/injection, schedule: Q01DX009 (ip), vehicle: Klucel (hydroxypropylcellulose) (HPC)
[5] = dose: 1.5 mg/kg/injection, schedule: Q01DX009 (ip), vehicle: Klucel (hydroxypropylcellulose) (HPC)
[6] = dose: 3.0 mg/kg/injection, schedule: Q01DX009 (ip), vehicle: Klucel (hydroxypropylcellulose) (HPC)
[7] = dose: 100.0 mg/kg/injection, schedule: Q01DX009 (ip), vehicle: saline
[8] = dose: 200.0 mg/kg/injection, schedule: Q01DX009 (ip), vehicle: saline
[9] = dose: 50.0 mg/kg/injection, schedule: Q01DX001 (ip), vehicle: Klucel (hydroxypropylcellulose) (HPC)
[10] = dose: 100.0 mg/kg/injection, schedule: Q01DX009 (ip), vehicle: Klucel (hydroxypropylcellulose) (HPC)
[11] = dose: 200.0 mg/kg/injection, schedule: Q01DX009 (ip), vehicle: Klucel (hydroxypropylcellulose) (HPC)

C1OC1C1CO1 (centres undefined)
T/C (dose: 10.0 mg/kg/injection, schedule: Q01DX009 (ip), vehicle: saline): 131 % of control

O=NNc1nc(-c2ccccn2)nc2ccccc12
survivor count (dose: 50.0 mg/kg/injection, schedule: Q01DX009 (ip), vehicle: DMSO): 6 of 6

C1COCCOCCOCCO1.[Cl][Sn]([Cl])([Cl])[Cl]
survivor count (dose: 400.0 mg/kg/injection, schedule: Q01DX001 (ip), vehicle: Klucel (hydroxypropylcellulose) (HPC)): 0 of 6

CC1=C(C(=O)Nc2cc(C)ccc2C)C(c2cccc([N+](=O)[O-])c2)C(C(=O)Nc2cc(C)ccc2C)=C(C)N1
survivor count [1]: 6 of 6

O=C(O)C(c1ccccc1)C1CCCCC1C1CCCCC1 (centres undefined)
survivor count [2]: 5 of 5 | survivor count [3]: 5 of 5

C=C(OC1C(C)=C2C(C1OC(=O)CCCCCCC)C(C)(OC(C)=O)CC(OC(=O)CCC)C1(O)C2OC(=O)C1(C)O)/C(C)=C/C (centres undefined)
T/C (dose: 0.37 mg/kg/injection, schedule: Q01DX009 (ip), vehicle: Klucel (hydroxypropylcellulose) (HPC)): 87, 103, 108, 109 % of control | T/C [4]: 108, 111, 114 % of control | survivor count [4]: 5 of 6 | T/C [5]: 90 [5 of 6 alive] and 126 % of control | survivor count [5]: 6 of 6 | T/C [6]: 126 % of control [5 of 6 alive] | survivor count [6]: 1 of 6, 3 of 6, 4 of 6

CC(C)[C@@H](C)/C=C/[C@@H](C)[C@H]1CC[C@@H]2[C@]1(C)CC[C@H]1[C@]23C=C[C@]2(C[C@@H](O)CC[C@]12C)OO3
survivor count (dose: 12.5 mg/kg/injection, schedule: Q01DX005 (ip), vehicle: Klucel (hydroxypropylcellulose) (HPC)): 6 of 6

N=C(N)c1nc2ccccc2s1
survivor count (dose: 50.0 mg/kg/injection, schedule: Q01DX009 (ip), vehicle: other): 0 of 6 | survivor count (dose: 100.0 mg/kg/injection, schedule: Q01DX009 (ip), vehicle: other): 1 of 6 | survivor count (dose: 200.0 mg/kg/injection, schedule: Q01DX009 (ip), vehicle: other): 0 of 6

CC(=O)N1CCCC2=C1CCCC2
survivor count (dose: 200.0 mg/kg/injection, schedule: Q04DX003 (ip), vehicle: saline): 5 of 6

Clc1ccc(-c2nnc(Nc3ccnc4cc(Cl)ccc34)s2)cc1
survivor count [2]: 3 of 6 | survivor count [3]: 0 of 6

BrCC[N+]12CC[N+](CCBr)(CC1)C2 (tested in a mixture with another compound)
T/C (dose: 20.0 mg/kg/injection, schedule: Q04DX003 (ip), vehicle: water): 125 % of control | T/C (dose: 40.0 mg/kg/injection, schedule: Q04DX003 (ip), vehicle: water): 140 % of control | T/C (dose: 75.0 mg/kg/injection, schedule: Q04DX003 (ip), vehicle: water): 126 % of control | T/C (dose: 150.0 mg/kg/injection, schedule: Q04DX003 (ip), vehicle: water): 148 % of control | survivor count (dose: 200.0 mg/kg/injection, schedule: Q04DX003 (ip), vehicle: water): 4 of 6 | T/C (dose: 320.0 mg/kg/injection, schedule: Q04DX003 (ip), vehicle: distilled water + Tween-80): 131 % of control [4 of 6 alive] | survivor count (dose: 400.0 mg/kg/injection, schedule: Q04DX003 (ip), vehicle: water): 0 of 6

N=c1c2ccccc2nc2n1CCCCCCC2
survivor count (dose: 100.0 mg/kg/injection, schedule: Q04DX003 (ip), vehicle: Klucel (hydroxypropylcellulose) (HPC)): 0 of 6

CNC1CCc2cc(OC)ccc21 (centres undefined)
survivor count (dose: 200.0 mg/kg/injection, schedule: Q01DX001 (ip), vehicle: Klucel (hydroxypropylcellulose) (HPC)): 1 of 6

ClCc1nnc2n1-c1ccc(Cl)cc1SC2
survivor count (dose: 240.0 mg/kg/injection, schedule: Q01DX005 (ip), vehicle: saline with Tween-80): 1 of 6

O=[N+]([O-])c1cnc(Sc2ccncn2)s1
survivor count (dose: 25.0 mg/kg/injection, schedule: Q01DX009 (ip), vehicle: saline): 4 of 6 | survivor count (dose: 50.0 mg/kg/injection, schedule: Q01DX009 (ip), vehicle: saline): 0 of 6 | survivor count [7]: 0 of 6 | survivor count [8]: 0 of 6

C(Oc1nc(OCC2CO2)nc(OCC2CO2)n1)C1CO1 (centres undefined)
survivor count [7]: 4 of 6 | survivor count [8]: 4 of 6

CNCCCN1c2ccccc2CCc2ccccc21
survivor count [2]: 0 of 6 | survivor count [3]: 0 of 6

CCOc1c(N=Nc2ccc(Cl)cc2)c(C)nn1C(=S)S
survivor count [1]: 0 of 6

O=NN(CCCl)C(=O)Oc1cc(Cl)c(Cl)cc1Cl
T/C (dose: 12.5 mg/kg/injection, schedule: Q01DX001 (ip), vehicle: Klucel (hydroxypropylcellulose) (HPC)): 133 [5 of 6 alive] and 144 % of control | T/C (dose: 25.0 mg/kg/injection, schedule: Q01DX001 (ip), vehicle: Klucel (hydroxypropylcellulose) (HPC)): 137 % of control | T/C [9]: 172, 198 [5 of 6 alive], 250 % of control | survivor count [9]: 4 of 6 | survivor count (dose: 75.0 mg/kg/injection, schedule: Q01DX001 (ip), vehicle: Klucel (hydroxypropylcellulose) (HPC)): 0 of 6 | survivor count (dose: 75.0 mg/kg/injection, schedule: Q01DX005 (ip), vehicle: Klucel (hydroxypropylcellulose) (HPC)): 2 of 6

CS(C)=Nc1ccc(Cl)cc1
survivor count (dose: 200.0 mg/kg/injection, schedule: Q01DX001 (ip), vehicle: saline): 3 of 6 | survivor count (dose: 400.0 mg/kg/injection, schedule: Q01DX001 (ip), vehicle: saline): 0 of 6

CN(C)CCOCC(O)(c1ccccc1)c1ccccc1
survivor count (dose: 200.0 mg/kg/injection, schedule: Q01DX009 (ip), vehicle: suspension in saline): 4 of 6

C/C(=N\N)c1cnc(NN)nc1C
survivor count (dose: 30.0 mg/kg/injection, schedule: Q01DX005 (ip), vehicle: saline): 3 of 6 | survivor count (dose: 60.0 mg/kg/injection, schedule: Q01DX005 (ip), vehicle: saline): 3 of 6 | survivor count (dose: 120.0 mg/kg/injection, schedule: Q01DX005 (ip), vehicle: saline): 0 of 6 | survivor count (dose: 240.0 mg/kg/injection, schedule: Q01DX005 (ip), vehicle: saline): 0 of 6

CC(C)N(C(C)C)P1N(C(C)(C)C)N=NN1C(C)(C)C
survivor count (dose: 100.0 mg/kg/injection, schedule: Q01DX005 (ip), vehicle: Klucel (hydroxypropylcellulose) (HPC)): 2 of 6 | survivor count (dose: 200.0 mg/kg/injection, schedule: Q01DX005 (ip), vehicle: Klucel (hydroxypropylcellulose) (HPC)): 0 of 6

NCCCC(NN)C(=O)O (centres undefined)
T/C (dose: 15.0 mg/kg/injection, schedule: Q01DX009 (ip), vehicle: saline): 130 % of control

Cc1ccc(S(=O)(=O)N(O)c2ccc(C)cc2C)cc1
survivor count [3]: 5 of 5

COc1cccc2c1C(=O)c1c(O)c3c(c(O)c1C2=O)C[C@@](O)(C(C)O)C[C@@H]3OC1CC(NC(=O)C(F)(F)F)C(O)C(C)O1 (some centres undefined)
T/C (dose: 1.56 mg/kg/injection, schedule: Q01DX009 (ip), vehicle: water): 140 % of control | T/C (dose: 3.13 mg/kg/injection, schedule: Q01DX009 (ip), vehicle: water): 125 and 145 % of control | T/C (dose: 6.25 mg/kg/injection, schedule: Q01DX009 (ip), vehicle: water): 145 % of control

COc1cc(C2CC(C)(N3CCCC3)Oc3cc4c(cc32)OCO4)cc(OC)c1OC (centres undefined)
survivor count (dose: 30.0 mg/kg/injection, schedule: Q01DX005 (ip), vehicle: Klucel (hydroxypropylcellulose) (HPC)): 6 of 6 | T/C (dose: 120.0 mg/kg/injection, schedule: Q01DX005 (ip), vehicle: Klucel (hydroxypropylcellulose) (HPC)): 125 and 138 % of control | survivor count [1]: 6 of 6

Nc1ccc2cc(S(=O)(=O)O)cc(O)c2c1N=Nc1ccc(NC(=O)c2ccc(C(=O)Nc3ccc(N=Nc4c(N)ccc5cc(S(=O)(=O)O)cc(O)c45)c(S(=O)(=O)O)c3)cc2)cc1S(=O)(=O)O
survivor count [2]: 6 of 6 | survivor count [3]: 3 of 6

O=c1[nH]c(=S)[nH]c2c(=O)[nH]c(=S)[nH]c12
survivor count [10]: 6 of 6 | survivor count [11]: 5 of 6

CN(C)c1ccc(/C=C/c2ccnc3ccccc23)cc1N
survivor count [10]: 3 of 6 | survivor count [11]: 0 of 6 | survivor count (dose: 400.0 mg/kg/injection, schedule: Q01DX009 (ip), vehicle: Klucel (hydroxypropylcellulose) (HPC)): 0 of 6
